For at least one entry, the source does not settle the construct or the ends of the probe. For some assays here: A negative result means that nothing was seen under these conditions. At least one verdict rests on a figure or table, not on a statement of the authors. For some assays here: Weaker means in comparison with the reference protein, sequence or condition of that experiment. For some assays here: Where a protein sequence is shown, tags need not be part of it.

One series relates to MdICE1L-HIS. The experiment in a line: EMSA. As to conditions: Beyotime Chemiluminescent EMSA Kit per manufacturer; pH and temperature not given; recombinant protein; protein details: His (pET28a); label: biotin. In general terms: Mobility shift assays separate free from complexed probe on a gel.
In the next series the target is T1, MdHB7L-HIS (UniProt D9ZJ22).
T1 sequence (looked up, limits assumed): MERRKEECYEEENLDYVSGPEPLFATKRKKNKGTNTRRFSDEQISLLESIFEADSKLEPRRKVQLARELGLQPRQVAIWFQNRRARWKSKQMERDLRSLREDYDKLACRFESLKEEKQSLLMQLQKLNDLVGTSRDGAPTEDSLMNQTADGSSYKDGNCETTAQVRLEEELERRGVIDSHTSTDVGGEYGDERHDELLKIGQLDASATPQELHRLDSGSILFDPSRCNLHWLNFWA
In words: EMSA. Conditions: Beyotime Chemiluminescent EMSA Kit per manufacturer, pH and temperature not given, recombinant protein, label: biotin.

As to “AAAAATAAAATGATTAGCCTGGCGCATCTA (double strand) [pMdCBF3-HB-P1]”, the binding result with MdICE1L-HIS was “no binding”; with MdHB7L-HIS (MdICE1L-HIS added), “binds more weakly”.

For “AAAGCATAGAAATAATTCCAAAACTATTTT (double strand) [pMdCBF1-HB-P1]”, the binding result in the series on MdICE1L-HIS is “no binding”; with MdHB7L-HIS (MdICE1L-HIS added) it was “binds more weakly”.

“CACTGTCGATTTAAATCATTCATACAGAAA (double strand) [pMdCBF3-HB-P2]”: the values for the binding result in the series on MdICE1L-HIS and with MdHB7L-HIS (MdICE1L-HIS added) were “no binding” and “binds more weakly”, respectively.

Turning to “CTATTATTATTAATTACTTTTTTCACATAA (double strand) [pMdCBF1-HB-P2]”, the binding result was “no binding” in the series on MdICE1L-HIS and “binds more weakly” in the series with MdHB7L-HIS (MdICE1L-HIS added).

For the sequence “GAAATTAAGTACTAATTGTTCAGTACCAAG (double strand) [pMdCBF1-HB-P4]”, the binding result with MdICE1L-HIS is “no binding”; with MdHB7L-HIS (MdICE1L-HIS added), “binds more weakly”.

With “GCACCAAGTCCAATTATTGAGCAATTAATG (double strand) [pMdPAP2-2-HB]”, the binding result with MdHB7L-HIS (MdHOS1-GST added) was “binds more weakly”.

Consider “TAGCAACTAATTAAGTCTTCAATAATTTCTAAAAGCA (double strand) [pMdCBF1-HB-P3]”, for which the binding result is given as “no binding” in the series on MdICE1L-HIS and “binds more weakly” with MdHB7L-HIS (MdICE1L-HIS added).

On to “TTAGGATAGTAATTGGTAACTCTCGACTCC (double strand) [pMdERDL6-1-1-HB]”, for which, in the series with MdHB7L-HIS (MdHOS1-GST added), the binding result is reported as “binds more weakly”.

These data come from article PMC12224988, “The MdHB7L–MdICE1L–MdHOS1 Module Fine‐Tunes Apple Cold Response via CBF‐Dependent and CBF‐Independent Pathways”.
